From patent publication US20200002405A1 come the findings set out here.

Sequences of proteins named here, by UniProt entry; tags and fusion partners are left off. Residues count along the entry.
UniProt P07399, residues 2-498: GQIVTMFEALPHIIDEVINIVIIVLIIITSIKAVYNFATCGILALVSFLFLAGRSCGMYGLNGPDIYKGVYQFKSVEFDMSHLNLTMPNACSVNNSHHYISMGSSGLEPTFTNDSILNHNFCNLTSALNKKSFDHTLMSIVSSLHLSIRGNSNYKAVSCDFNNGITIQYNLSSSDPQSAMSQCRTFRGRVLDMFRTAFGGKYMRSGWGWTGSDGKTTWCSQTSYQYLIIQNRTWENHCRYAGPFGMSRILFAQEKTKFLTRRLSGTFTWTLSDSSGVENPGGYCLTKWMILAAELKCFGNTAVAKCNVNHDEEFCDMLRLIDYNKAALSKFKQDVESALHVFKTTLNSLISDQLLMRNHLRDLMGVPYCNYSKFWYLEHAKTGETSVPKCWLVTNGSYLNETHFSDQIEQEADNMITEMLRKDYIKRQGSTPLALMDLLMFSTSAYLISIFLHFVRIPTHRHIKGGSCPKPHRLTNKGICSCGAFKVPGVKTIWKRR
UniProt P08669, residues 59-424: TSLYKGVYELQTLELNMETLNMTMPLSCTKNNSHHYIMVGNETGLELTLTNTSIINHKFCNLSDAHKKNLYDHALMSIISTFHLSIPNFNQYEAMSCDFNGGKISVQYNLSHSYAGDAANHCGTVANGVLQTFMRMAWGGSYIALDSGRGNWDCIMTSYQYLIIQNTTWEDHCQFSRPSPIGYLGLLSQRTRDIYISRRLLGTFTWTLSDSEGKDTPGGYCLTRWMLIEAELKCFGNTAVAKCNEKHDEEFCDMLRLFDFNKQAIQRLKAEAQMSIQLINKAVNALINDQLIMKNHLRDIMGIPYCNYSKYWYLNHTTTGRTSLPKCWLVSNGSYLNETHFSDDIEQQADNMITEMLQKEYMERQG

Results are given in words; binding and its absence hold for the method and conditions named. Some entries that bind do so weakly or less than the wild type.

Assay [1] addresses LCMV WE strain GP (LCMV, WE strain) (UniProt P07399). As to the kind of experiment: recognition of LCMV GPs, immunofluorescence.
For assay [2] the target is unchanged. As to the kind of experiment: cross-reactivity, immunofluorescence on GP-transfected 293T cells.
Assay [3] deals with GP from Josiah strain of LASV (ELISA antigen) (Lassa virus, Josiah strain) (UniProt P08669). The experiment in a line: ELISA. On the technique in general: An ELISA detects its analyte on a solid surface through an enzyme-linked reagent.

B1: 36.9F (antibody, V domains shown)
VH: EVQLVQSGGGLVKAGGSLKLSCGASGFTFSSYSMSWVRQAPGKGLEWVSYISSGGSSIHYADSVKGRFTISRDNAKNSLYLQMKNLRVDDTGRYYCVRDPRSGISGRYGMDVWGQGTTVTVSS
VL: DIVMTQSPDSLAVSLGERATINCKSSQTVLFTSYYVAWYQQKPGQPPKLLFSGASSRESGVPDRFSAGGSGTDFYLTINSLQAEDVADYYCQQYHTPPFTFGGGTKLEIRR
Turning to B1, the binding result in assay [1] and in assay [2] was “binds” throughout.

B2: 18.5C (antibody)
VH: DEVQLVESGGGLVRPGGSLRLSCAAAGFTFKSYSMNWVRQAPGRGLEWVSSITSGGSKTYYADVVKGRFTVSRDNAKQSLYLQMNSLRAEDTAIYFCARSLHSTSQPSYMDVWGRKITVIVSSASTKGPSVFPLAPSSKSTSGGTAALGCLVKDYFPEPVTVSWNSGALTSGVHTFPAVLQSSGLYSLSSVVTVPSSSLGTQTYICNVNHKPSNTKVDKRVEPKSCDKTHTCPPCPAPELLGGPSVFLFPPKPKDTLMISRTPEVTC
VL: DDIQMTQSPGTLSLSPGERATLSCRASQSVISYYVAWYQHKGGQAPRLLIYGASSRATGVPDRFSGSGSGTDFTLTISSLEPEDFALYYCQYYGSSPLWAFGQGTKVEIKRTVAAPSVFIFPPSDEQLKSGTASVVCLLNNFYPREAKVQWKVDNALQSGNSQESVTEQDSKDSTYSLSSTLTLSKADYEKHKVYACEVTHQGLSSPVTKSFNRGEC
For B2, the binding entry in assay [3] is “binds”.

B3: 9.8A (antibody, V domains shown)
VH: EVQLVQSGGRLVQPGGSLRLSCVASGFTFSSHAMSWVRQAPGKGLEWVSGFSGSSGTTKYADSVKGRFTISRDNSKKTLYLQMNSLRAEDTAVYYCAKGFSPFRGVQFPYFDYWGQGTLVTVSS
VL: DIVMTQSPSTLSASVGDRVTITCRASQSIDRWLAWYQQKPGKAPKLLIYQASSLERGVPSRFSGSGSGTEFTLTISSLQPDDFATYYCQQYNGYPLTFGGGTKVEIKR
B3: the binding entry in assay [1] and in assay [2] was “binds” in each case.
